Reference: patent US11718589B2, “Compositions and methods of modulating short-chain dehydrogenase” (CASE WESTERN RESERVE UNIVERSITY, priority 2017, dated 2023)
The structures given here were assigned with low confidence; some may be wrong.

By UniProt entry, the sequences of proteins in these tests, tags left out.
UniProt P15428, whole entry: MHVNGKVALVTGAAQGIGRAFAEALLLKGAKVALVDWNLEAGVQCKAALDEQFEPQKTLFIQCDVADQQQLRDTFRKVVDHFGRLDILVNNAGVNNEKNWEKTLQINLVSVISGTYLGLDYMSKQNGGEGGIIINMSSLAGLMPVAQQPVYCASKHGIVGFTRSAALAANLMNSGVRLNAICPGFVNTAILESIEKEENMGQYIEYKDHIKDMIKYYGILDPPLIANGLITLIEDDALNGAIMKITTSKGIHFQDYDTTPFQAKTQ

Target: recombinant 15-PGDH (Homo sapiens (Human), UniProt P15428)
Test: Enzyme inhibition of recombinant 15-PGDH, in vitro assay
Format: biochemical
Settings: read-out: Enzyme inhibition (IC50); recombinant human 15-PGDH

O=C(c1cc2ncc(-c3cccs3)cn2n1)N1CCCCC1
IC50: 100 nM
